These are yes or no findings as the source states them, for the method shown.

Protein sequences, listed by entry. Tags and fused reporters are not part of them. Residues count along the entry.
UniProt P13664, residues 48-302: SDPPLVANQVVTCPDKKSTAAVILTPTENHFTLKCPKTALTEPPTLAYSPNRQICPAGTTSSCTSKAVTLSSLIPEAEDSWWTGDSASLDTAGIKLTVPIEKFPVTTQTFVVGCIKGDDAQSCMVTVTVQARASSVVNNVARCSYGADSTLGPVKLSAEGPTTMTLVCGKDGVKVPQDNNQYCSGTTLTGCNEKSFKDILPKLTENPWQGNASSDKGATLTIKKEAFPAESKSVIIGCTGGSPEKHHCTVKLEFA

The target of this assay is SAG1t (untargeted D1D2 domains of the Toxoplasma gondii surface antigen SAG1) (Toxoplasma gondii) (UniProt P13664). Briefly: SEC; Superdex 75 10/300 GL column, Akta purifier, 0.5 nmol of each purified protein loaded; both purified.

Turning to “SAG1t (untargeted D1D2 domains of the Toxoplasma gondii surface antigen SAG1) (from UniProt P13664 48-302) (domain or fragment)”, the binding result is given as “no binding (tested: 0.5 nmol loaded)”.

(Values after publication PMC5826183.)
